Cleaved PARP in drug-treated melanoma cells

From a melanoma drug combination screen (doi:10.1371/journal.pone.0140310); values rounded.

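Human melanoma cells were exposed to two drugs together for 72 h in 1,536-well plates and read by automated microscopy after fixing and staining. Each value is the cleaved-PARP-positive fraction of nuclei relative to DMSO-treated wells, in %, so that 100 equals the control and higher values mean more apoptosis. Every drug was used at one fixed concentration, the higher of two screened. These are primary screening values without error estimates. Basal and induced levels differ widely between cell lines.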 This is part of the screen, not chosen by result. An entry leaves out what has no value listed here. A dash means that no value is listed here.

Compounds and concentrations:
ENMD-2076 (0.2 µM): Cc1cc(Nc2cc(N3CCN(C)CC3)nc(/C=C/c3ccccc3)n2)n[nH]1
CX-4945 (2 µM): O=C(O)c1ccc2c(c1)nc(Nc1cccc(Cl)c1)c1ccncc12
ruxolitinib (5 µM): N#CC[C@H](C1CCCC1)n1cc(-c2ncnc3[nH]ccc23)cn1
KU-0063794 (0.1 µM): COc1ccc(-c2ccc3c(N4CCOCC4)nc(N4C[C@@H](C)O[C@@H](C)C4)nc3n2)cc1CO
PLX4720 (0.4 µM): CCCS(=O)(=O)Nc1ccc(F)c(C(=O)c2c[nH]c3ncc(Cl)cc23)c1F
midostaurin (0.4 µM): CO[C@@H]1[C@H](N(C)C(=O)c2ccccc2)C[C@H]2O[C@]1(C)n1c3ccccc3c3c4c(c5c6ccccc6n2c5c31)C(=O)NC4

| Cell line | ruxolitinib and PLX4720 | KU-0063794 and CX-4945 | PLX4720 and midostaurin | ENMD-2076 and KU-0063794 | CX-4945 and ruxolitinib | ENMD-2076 and PLX4720 | ruxolitinib and KU-0063794 | midostaurin and CX-4945 |
|---|---|---|---|---|---|---|---|---|
| MeWo | 148 | 228 | 87.0 | 205 | 11.5 | 47.7 | 96.5 | 175 |
| A101D | 85.7 | 130 | 120 | 136 | 31.8 | 96.2 | 158 | 126 |
| RVH-421 | 37.5 | 180 | 57.4 | 72.5 | 48.5 | 87.0 | 212 | 170 |
| COLO 800 | 40.6 | 296 | 113 | 155 | 50.3 | 194 | 91.4 | 183 |
| WM115 | 55.9 | 220 | 137 | 42.3 | 122 | 165 | 251 | 181 |
| 501mel | - | 104 | - | 103 | - | - | 279 | - |
| MEL-HO | 138 | 64.2 | 90.2 | 115 | 52.5 | 60.5 | 86.4 | 170 |
| LOX IMVI | 102 | 154 | 268 | 134 | 237 | 65.3 | - | 73.0 |
| WM1716 | 80.4 | 200 | 30.7 | 79.6 | 179 | 106 | 49.2 | 1210 |
| IPC-298 | 50.9 | 391 | 219 | 87.9 | 126 | 125 | 81.6 | 201 |
| SK-MEL-28 | 73.9 | 62.8 | 206 | 39.1 | 151 | 110 | 230 | 197 |
| A375 | 70.3 | 130 | - | 171 | 126 | 390 | 128 | - |
| WM1745 | 101 | - | 182 | - | 109 | 127 | - | 335 |
| MZ2-MEL | 146 | 102 | 322 | 107 | 353 | 68.7 | 203 | 1140 |
| UACC-257 | 87.9 | 57.7 | 73.1 | 97.5 | 88.8 | 117 | 28.8 | 177 |
| SK-MEL-5 | 242 | 87.4 | 62.5 | 211 | 73.7 | 98.8 | 263 | 145 |
| SK-MEL-30 | 63.8 | 212 | 132 | 193 | 194 | 71.9 | 100 | 144 |
| IST-MEL1 | 46.7 | 97.0 | 272 | 325 | 101 | 171 | 95.8 | 104 |
| WM451Lu | 54.7 | 36.2 | 45.3 | 235 | 50.7 | 262 | 98.5 | 163 |
| UACC-62 | 260 | 428 | 161 | 189 | 102 | 403 | 187 | 188 |
| RPMI-7951 | 133 | 135 | 365 | 145 | 219 | 336 | 48.5 | 214 |
| COLO 829 | 83.8 | 191 | 214 | 123 | 179 | 171 | 105 | 332 |
| COLO 792 | 90.2 | 91.3 | 156 | 75.1 | 110 | 102 | 123 | 432 |
| A2058 | 166 | 285 | 151 | 145 | 292 | 136 | 93.0 | 362 |
| G-361 | 323 | 355 | 453 | 138 | 249 | 347 | 116 | 415 |
| SK-MEL-2 | 205 | 149 | 141 | 82.0 | 106 | 119 | 103 | 214 |
| LB2518-MEL | 91.1 | 52.5 | 40.6 | 66.1 | 116 | 159 | 170 | 196 |
| WM3526 | 311 | 138 | 76.4 | 158 | 237 | 192 | 189 | 865 |
| C32 | 243 | 76.3 | 206 | 78.6 | 36.7 | 90.3 | 84.4 | 197 |
| WM3619 | 98.5 | 137 | 109 | 152 | 88.1 | 122 | 117 | 118 |

The last 3 entries again:

{"cell line": "WM3526", "ruxolitinib and PLX4720": 311, "KU-0063794 and CX-4945": 138, "PLX4720 and midostaurin": 76.4, "ENMD-2076 and KU-0063794": 158, "CX-4945 and ruxolitinib": 237, "ENMD-2076 and PLX4720": 192, "ruxolitinib and KU-0063794": 189, "midostaurin and CX-4945": 865}
{"cell line": "C32", "ruxolitinib and PLX4720": 243, "KU-0063794 and CX-4945": 76.3, "PLX4720 and midostaurin": 206, "ENMD-2076 and KU-0063794": 78.6, "CX-4945 and ruxolitinib": 36.7, "ENMD-2076 and PLX4720": 90.3, "ruxolitinib and KU-0063794": 84.4, "midostaurin and CX-4945": 197}
{"cell line": "WM3619", "ruxolitinib and PLX4720": 98.5, "KU-0063794 and CX-4945": 137, "PLX4720 and midostaurin": 109, "ENMD-2076 and KU-0063794": 152, "CX-4945 and ruxolitinib": 88.1, "ENMD-2076 and PLX4720": 122, "ruxolitinib and KU-0063794": 117, "midostaurin and CX-4945": 118}